Results are given in words; binding and its absence hold for the method and conditions named. Some binding calls cover weakened binding; strength is not graded here. Tags and fused reporters may be left off the sequences shown.
Tests used:
[1] = target: T1, Kar9 fused to the LexA DNA-binding domain (S. cerevisiae) (UniProt P32526); test: two-hybrid; Bim1 fused to the GAL4 activation domain (pGADT7); wt or F265L β-tubulin or Kar9 fused to the LexA DNA-binding domain (pLexA); β-galactosidase activity detected on filters
T1 sequence: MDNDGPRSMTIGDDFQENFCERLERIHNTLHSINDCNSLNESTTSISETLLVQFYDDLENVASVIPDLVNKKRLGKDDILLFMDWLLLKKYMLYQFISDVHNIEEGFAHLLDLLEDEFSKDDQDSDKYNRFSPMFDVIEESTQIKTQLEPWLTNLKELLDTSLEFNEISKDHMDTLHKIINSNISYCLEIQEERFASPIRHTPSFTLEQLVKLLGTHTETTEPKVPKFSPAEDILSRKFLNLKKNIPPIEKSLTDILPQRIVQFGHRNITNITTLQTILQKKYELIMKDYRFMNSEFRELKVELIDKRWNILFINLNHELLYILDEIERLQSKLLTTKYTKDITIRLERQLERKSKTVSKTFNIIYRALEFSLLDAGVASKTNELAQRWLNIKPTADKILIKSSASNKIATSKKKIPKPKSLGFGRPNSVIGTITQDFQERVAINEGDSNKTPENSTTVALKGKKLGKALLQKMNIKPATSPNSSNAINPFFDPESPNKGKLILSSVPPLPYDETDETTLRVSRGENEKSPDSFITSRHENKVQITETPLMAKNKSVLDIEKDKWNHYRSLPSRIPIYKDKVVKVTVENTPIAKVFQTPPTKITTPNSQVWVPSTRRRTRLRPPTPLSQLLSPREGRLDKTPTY

[2] = target: T2, wt β-tubulin (Tub2) fused to the LexA DNA-binding domain (S. cerevisiae) (UniProt P02557); test: as above
T2 sequence: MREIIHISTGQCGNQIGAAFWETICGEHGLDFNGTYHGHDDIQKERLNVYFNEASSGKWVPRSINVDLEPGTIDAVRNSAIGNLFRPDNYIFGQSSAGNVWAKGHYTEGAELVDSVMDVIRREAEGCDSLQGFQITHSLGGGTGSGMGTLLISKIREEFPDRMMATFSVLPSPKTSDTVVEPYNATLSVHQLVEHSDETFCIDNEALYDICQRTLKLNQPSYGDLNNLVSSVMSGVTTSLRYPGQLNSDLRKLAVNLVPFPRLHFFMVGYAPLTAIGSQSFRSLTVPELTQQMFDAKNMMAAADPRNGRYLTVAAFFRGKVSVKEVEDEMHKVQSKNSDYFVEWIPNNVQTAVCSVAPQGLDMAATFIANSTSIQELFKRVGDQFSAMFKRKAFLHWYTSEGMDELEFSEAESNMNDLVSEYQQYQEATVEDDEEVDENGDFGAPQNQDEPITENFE

binding [1]: binds
binding [2]: binds
B1: Bim1 (yeast EB1) fused to the GAL4 activation domain (protein, UniProt P40013 1-344)
chain: MSAGIGESRTELLTWLNGLLNLNYKKIEECGTGAAYCQIMDSIYGDLPMNRVKFNATAEYEFQTNYKILQSCFSRHGIEKTVYVDKLIRCKFQDNLEFLQWLKKHWIRHKDESVYDPDARRKYRPIITNNSATKPRTVSNPTTAKRSSSTGTGSAMSGGLATRHSSLGINGSRKTSVTQGQLVAIQAELTKSQETIGSLNEEIEQYKGTVSTLEIEREFYFNKLRDIEILVHTTQDLINEGVYKFNDETITGHGNGNGGALLRFVKKVESILYATAEGFEMNDGEDELNDKNLGEHGTVPNQGGYANSNGEVNGNEGSNHDVIMQNDEGEVGVSNNLIIDEETF

— paper PMC6361202
